Source: patent US20170081382A1
These are yes or no findings as the source states them, for the method shown. Some binding calls cover weakened binding; strength is not graded here. Sequences can lack the tags named with a protein.

Chains of the proteins cited; added tags and fusions are not shown. Residues count along the entry.
UniProt P01589, residues 22-272: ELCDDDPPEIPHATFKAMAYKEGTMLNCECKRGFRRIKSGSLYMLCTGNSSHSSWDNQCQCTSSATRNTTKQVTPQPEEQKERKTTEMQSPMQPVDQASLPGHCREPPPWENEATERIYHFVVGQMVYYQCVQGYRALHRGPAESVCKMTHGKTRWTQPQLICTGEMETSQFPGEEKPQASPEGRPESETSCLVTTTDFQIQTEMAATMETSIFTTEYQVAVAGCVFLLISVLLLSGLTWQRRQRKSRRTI

Molecular target: CD25 (IL-2Rα) on the surface of activated T cells (UniProt P01589)
Test: binding to cell surface CD25; method not detailed

B1: IL-2 mutein haD5 fused to the amino terminus of Fc, separated by a GGGGS linker (Fc fusion, not shown: a dimerising Fc or GST; small tags and cut ends)
chain: APTSSSTKKTQLQLQNLLLDLQMILNGISNHKNPRLARMLTFKFYMPEKATELKHLQCLEEELKPLEEALRLAPSKNFHLRPRDLISDINVIVLELKGSETTFMCEYADETATIVEFLNRWITFSQSIISTLTGGGGS
binding: binds
